Experimental data from patent US11597748B2, “Peptide having cytoprotective effect against environmental pollutant and use thereof” (CAREGEN CO., LTD., priority 2017, dated 2023).
Part of at least one peptide drawing is inferred or uncertain, most often the ends. Some entries repeat one wording, which the source may state once for all of them. No end group written: not given here.

Assays:
[1] = In vitro binding assay (ELISA plate coated with peptide, TCDD, anti-TCDD antibody conjugated with FITC); details: FIGS. 1A to 1C and Table 2
[2] = test system: aryl hydrocarbon receptor (AhR); assay: AhR nuclear translocation test with TCDD (Western blot of nuclear/cytoplasmic proteins); type: cell-based, human; details: HaCaT cells, 10 nM TCDD; for AhR nuclear translocation (control = 1 times): 1 hour
HaCaT cells [3] = assay: ROS analysis in cell (DCFH-DA, FACS); type: cell-based, human; details: 10 nM TCDD, 50 μM peptide, 24 hours
[4] = test system: aryl hydrocarbon receptor (AhR); assay: AhR nuclear translocation test with urban particulate matter; type: cell-based, human; details: HaCaT cells; 10 nM urban particulate matter; 50 μM peptide; 1 hour
HaCaT cells [5] = assay: TCDD ICC (introduction of TCDD into cells, fluorescence microscopy); type: cell-based, human; details: 50 nM TCDD, 50 μM peptide, 5 minutes

Substance	binding to TCDD (in words) [1]	effect on nuclear translocation of AhR by TCDD (in words) [2]	AhR nuclear translocation (control = 1 times) ([2]; TCDD + Peptide 5 μM)	AhR nuclear translocation (control = 1 times) ([2]; TCDD + Peptide 50 μM)	effect on ROS levels increased by TCDD (in words) (HaCaT cells [3])	effect on nuclear translocation of AhR by particulate matter (in words) [4]	effect on introduction of TCDD into cells (in words) (HaCaT cells [5])
KWGGGRY [SEQ ID NO: 1, KWGGGRY]	directly binds to TCDD	inhibits nuclear translocation of AhR by TCDD	1.9 times	1.9 times	reduced ROS levels increased by TCDD in cells	inhibited nuclear translocation of AhR by particulate matter	inhibited introduction of TCDD into cells
DVENTS [SEQ ID NO: 3, DVENTS]	directly binds to TCDD	inhibits nuclear translocation of AhR by TCDD	3 times	1.5 times	reduced ROS levels increased by TCDD in cells	inhibited nuclear translocation of AhR by particulate matter	inhibited introduction of TCDD into cells
ILGRWCG [SEQ ID NO: 2, ILGRWCG]	directly binds to TCDD	inhibits nuclear translocation of AhR by TCDD	2.5 times	0.9 times	reduced ROS levels increased by TCDD in cells	inhibited nuclear translocation of AhR by particulate matter	inhibited introduction of TCDD into cells
